This is one part of the list. For some assays here: Construct or isoform of the protein are uncertain.
How the values were obtained:
Assay in all cases: protein microarray (ProtoArray v5.0), streptavidin-Alexa Fluor 647
Details in all cases: 3'-biotin; 20 mM Tris (pH 7.5), 5 mM MgCl2, 100 mM KCl, 0.1% Tween-20, A/T-rich and random oligonucleotide blockers; temperature not stated; high values mean tight binding
[1] = tested on: NKG2D ligand 4 (human)
[2] = tested on: NME1 (human)
[3] = tested on: NME5 (human)
[4] = tested on: NME6 (human)
[5] = tested on: NMI (human)
[6] = tested on: NMNAT2 (human)
[7] = molecular target: T1, NMT2 (UniProt O60551)
T1 sequence: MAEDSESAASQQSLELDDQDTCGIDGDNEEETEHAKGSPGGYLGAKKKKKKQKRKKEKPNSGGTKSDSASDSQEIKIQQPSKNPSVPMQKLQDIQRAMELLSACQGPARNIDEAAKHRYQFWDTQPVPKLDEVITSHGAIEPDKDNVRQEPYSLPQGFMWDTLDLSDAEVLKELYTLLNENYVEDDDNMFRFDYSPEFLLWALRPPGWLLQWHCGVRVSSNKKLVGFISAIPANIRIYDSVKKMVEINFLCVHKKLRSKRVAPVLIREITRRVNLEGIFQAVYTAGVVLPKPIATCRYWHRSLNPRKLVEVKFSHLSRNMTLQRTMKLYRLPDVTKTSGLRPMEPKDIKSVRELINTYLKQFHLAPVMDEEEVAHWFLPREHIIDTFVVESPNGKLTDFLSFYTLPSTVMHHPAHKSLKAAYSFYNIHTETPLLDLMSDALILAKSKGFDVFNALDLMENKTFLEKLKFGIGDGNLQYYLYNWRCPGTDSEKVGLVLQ

[8] = molecular target: T2, NOL7 (UniProt Q9UMY1)
T2 sequence: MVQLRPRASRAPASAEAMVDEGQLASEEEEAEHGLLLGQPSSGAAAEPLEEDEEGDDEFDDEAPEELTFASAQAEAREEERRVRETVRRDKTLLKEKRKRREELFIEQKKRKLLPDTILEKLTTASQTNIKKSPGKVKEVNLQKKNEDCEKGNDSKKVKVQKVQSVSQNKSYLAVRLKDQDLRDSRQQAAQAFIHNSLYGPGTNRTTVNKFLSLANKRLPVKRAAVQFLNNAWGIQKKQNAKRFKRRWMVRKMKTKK

[9] = tested on: NPC2 (human)
[10] = tested on: NPL (human)
[11] = tested on: NRARP (human)
[12] = tested on: NUCB1 (human)
[13] = tested on: NUDT9 (human)
[14] = tested on: NUMB (human)
[15] = tested on: NVL (human)
[16] = tested on: NY-SAR-48 (human)
[17] = tested on: Neurocalcin-delta (human)
[18] = tested on: Neuroplastin (human)
[19] = tested on: Non-histone chromosomal protein HMG-14 (human)
[20] = tested on: Nuclear protein Hcc-1 (human)

## GGGGACAGGGGTATGGGGAGGGG [G4-3 biotinylated (CtG)]
[1]
  binding signal: -0.317 z-score
[2]
  binding signal: -0.333 z-score
[3]
  binding signal: -0.331 z-score
[4]
  binding signal: -0.326 z-score
[5]
  binding signal: -0.312 z-score
[6]
  binding signal: -0.333 z-score
[7]
  binding signal: 4.57 z-score
[8]
  binding signal: 8.76 z-score
[9]
  binding signal: -0.322 z-score
[10]
  binding signal: -0.331 z-score
[11]
  binding signal: -0.338 z-score
[12]
  binding signal: -0.309 z-score
[13]
  binding signal: -0.326 z-score
[14]
  binding signal: -0.338 z-score
[15]
  binding signal: -0.329 z-score
[16]
  binding signal: -0.315 z-score
[17]
  binding signal: -0.337 z-score
[18]
  binding signal: -0.316 z-score
[19]
  binding signal: 7.64 z-score
[20]
  binding signal: 7.27 z-score

Source: PMC5996148
